Source: PMC11571712
Results are given in words; binding and its absence hold for the method and conditions named. Binding seen in cells or lysates may run through a third protein. Some results given as binding are weak or reduced against the parent protein; the word gives no strength.

By UniProt entry, the sequences of proteins in these tests, tags left out.
UniProt P01106: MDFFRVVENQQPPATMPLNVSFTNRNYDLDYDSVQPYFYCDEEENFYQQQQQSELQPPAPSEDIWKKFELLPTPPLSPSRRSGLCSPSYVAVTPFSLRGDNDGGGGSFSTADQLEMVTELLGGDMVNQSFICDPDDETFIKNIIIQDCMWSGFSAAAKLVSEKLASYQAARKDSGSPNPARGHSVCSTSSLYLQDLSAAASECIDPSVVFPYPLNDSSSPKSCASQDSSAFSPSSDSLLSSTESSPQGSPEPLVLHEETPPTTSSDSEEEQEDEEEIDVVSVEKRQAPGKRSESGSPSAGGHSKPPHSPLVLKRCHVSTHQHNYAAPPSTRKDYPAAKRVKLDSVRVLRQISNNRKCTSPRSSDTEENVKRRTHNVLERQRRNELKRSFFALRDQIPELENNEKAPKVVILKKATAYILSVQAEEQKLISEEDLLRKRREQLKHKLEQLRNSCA
UniProt Q9BXK1: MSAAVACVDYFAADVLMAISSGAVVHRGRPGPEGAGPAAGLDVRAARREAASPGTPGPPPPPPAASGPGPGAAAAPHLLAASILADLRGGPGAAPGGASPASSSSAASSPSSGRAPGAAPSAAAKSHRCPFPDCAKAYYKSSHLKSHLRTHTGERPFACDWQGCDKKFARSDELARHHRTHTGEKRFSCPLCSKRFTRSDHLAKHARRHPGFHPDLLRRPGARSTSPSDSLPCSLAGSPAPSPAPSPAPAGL

Legend:
[1] = molecular target: c-Myc (MYC), endogenous (human (endogenous in UM-UC-3 and T24)) (UniProt P01106); test: co-IP; endogenous proteins; UM-UC-3 and T24 lysates in RIPA buffer (50 mM Tris-HCl pH 8.0, 150 mM NaCl, 0.5% NP-40, 5 mM EDTA); anti-MYC antibody or anti-IgG overnight at 4 °C, then protein A/G agarose beads 4 h at 4 °C; Western blotting
[2] = molecular target: KLF16, transfected in HEK293T cells for the co-IP with SFB-MYC truncations (human) (UniProt Q9BXK1); test: co-IP; HEK293T cells co-transfected with the indicated plasmids (SFB-MYC truncations); immunoprecipitation with anti-HA beads, Western blotting

## Krüppel-like factor 16 (KLF16), endogenous (from UniProt Q9BXK1 1-252)
[1]
  binding: binds

## SFB-MYC (from UniProt P01106 1-454)
[2]
  binding: binds
